The experiment concerns the target T1, Polypeptide N-Acetylgalactosaminyltransferase 5 (UniProt Q7Z7M9).
T1 sequence: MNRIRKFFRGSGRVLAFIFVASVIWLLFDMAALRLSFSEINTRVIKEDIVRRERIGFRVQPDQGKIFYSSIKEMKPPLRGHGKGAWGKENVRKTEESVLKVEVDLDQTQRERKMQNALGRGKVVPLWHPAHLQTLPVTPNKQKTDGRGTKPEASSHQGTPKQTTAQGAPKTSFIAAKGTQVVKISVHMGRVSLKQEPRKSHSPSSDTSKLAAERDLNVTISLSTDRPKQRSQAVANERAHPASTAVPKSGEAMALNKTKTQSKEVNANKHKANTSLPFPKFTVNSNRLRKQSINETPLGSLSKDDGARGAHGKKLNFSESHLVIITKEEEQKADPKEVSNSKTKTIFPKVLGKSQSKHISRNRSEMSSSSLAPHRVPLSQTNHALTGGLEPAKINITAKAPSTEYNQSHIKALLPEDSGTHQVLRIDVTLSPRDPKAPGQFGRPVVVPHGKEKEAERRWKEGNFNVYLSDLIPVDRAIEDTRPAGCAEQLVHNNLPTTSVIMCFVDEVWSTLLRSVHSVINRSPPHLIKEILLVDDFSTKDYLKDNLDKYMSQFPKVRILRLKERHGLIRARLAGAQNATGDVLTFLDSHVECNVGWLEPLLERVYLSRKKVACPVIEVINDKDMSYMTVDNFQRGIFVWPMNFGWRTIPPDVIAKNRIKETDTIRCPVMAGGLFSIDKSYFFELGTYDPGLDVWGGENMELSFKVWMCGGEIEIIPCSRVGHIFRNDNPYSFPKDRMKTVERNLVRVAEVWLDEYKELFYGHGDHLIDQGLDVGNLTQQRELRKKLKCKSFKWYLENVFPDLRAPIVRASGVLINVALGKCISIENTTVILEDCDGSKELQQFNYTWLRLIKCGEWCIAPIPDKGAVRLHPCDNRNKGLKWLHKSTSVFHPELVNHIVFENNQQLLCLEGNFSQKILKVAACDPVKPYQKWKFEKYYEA
In words: co-IP; cells lysed in WB IP lysis and extraction buffer with proteinase phosphatase inhibitors; beads incubated with antibodies for 30 min, then with the samples for 1 h at room temperature; western blot; cell line and precipitating antibody not named. (In general: A western blot detects proteins with antibodies after separation by electrophoresis.)

By UniProt entry, the sequences of proteins in these tests, tags left out.
UniProt P35579: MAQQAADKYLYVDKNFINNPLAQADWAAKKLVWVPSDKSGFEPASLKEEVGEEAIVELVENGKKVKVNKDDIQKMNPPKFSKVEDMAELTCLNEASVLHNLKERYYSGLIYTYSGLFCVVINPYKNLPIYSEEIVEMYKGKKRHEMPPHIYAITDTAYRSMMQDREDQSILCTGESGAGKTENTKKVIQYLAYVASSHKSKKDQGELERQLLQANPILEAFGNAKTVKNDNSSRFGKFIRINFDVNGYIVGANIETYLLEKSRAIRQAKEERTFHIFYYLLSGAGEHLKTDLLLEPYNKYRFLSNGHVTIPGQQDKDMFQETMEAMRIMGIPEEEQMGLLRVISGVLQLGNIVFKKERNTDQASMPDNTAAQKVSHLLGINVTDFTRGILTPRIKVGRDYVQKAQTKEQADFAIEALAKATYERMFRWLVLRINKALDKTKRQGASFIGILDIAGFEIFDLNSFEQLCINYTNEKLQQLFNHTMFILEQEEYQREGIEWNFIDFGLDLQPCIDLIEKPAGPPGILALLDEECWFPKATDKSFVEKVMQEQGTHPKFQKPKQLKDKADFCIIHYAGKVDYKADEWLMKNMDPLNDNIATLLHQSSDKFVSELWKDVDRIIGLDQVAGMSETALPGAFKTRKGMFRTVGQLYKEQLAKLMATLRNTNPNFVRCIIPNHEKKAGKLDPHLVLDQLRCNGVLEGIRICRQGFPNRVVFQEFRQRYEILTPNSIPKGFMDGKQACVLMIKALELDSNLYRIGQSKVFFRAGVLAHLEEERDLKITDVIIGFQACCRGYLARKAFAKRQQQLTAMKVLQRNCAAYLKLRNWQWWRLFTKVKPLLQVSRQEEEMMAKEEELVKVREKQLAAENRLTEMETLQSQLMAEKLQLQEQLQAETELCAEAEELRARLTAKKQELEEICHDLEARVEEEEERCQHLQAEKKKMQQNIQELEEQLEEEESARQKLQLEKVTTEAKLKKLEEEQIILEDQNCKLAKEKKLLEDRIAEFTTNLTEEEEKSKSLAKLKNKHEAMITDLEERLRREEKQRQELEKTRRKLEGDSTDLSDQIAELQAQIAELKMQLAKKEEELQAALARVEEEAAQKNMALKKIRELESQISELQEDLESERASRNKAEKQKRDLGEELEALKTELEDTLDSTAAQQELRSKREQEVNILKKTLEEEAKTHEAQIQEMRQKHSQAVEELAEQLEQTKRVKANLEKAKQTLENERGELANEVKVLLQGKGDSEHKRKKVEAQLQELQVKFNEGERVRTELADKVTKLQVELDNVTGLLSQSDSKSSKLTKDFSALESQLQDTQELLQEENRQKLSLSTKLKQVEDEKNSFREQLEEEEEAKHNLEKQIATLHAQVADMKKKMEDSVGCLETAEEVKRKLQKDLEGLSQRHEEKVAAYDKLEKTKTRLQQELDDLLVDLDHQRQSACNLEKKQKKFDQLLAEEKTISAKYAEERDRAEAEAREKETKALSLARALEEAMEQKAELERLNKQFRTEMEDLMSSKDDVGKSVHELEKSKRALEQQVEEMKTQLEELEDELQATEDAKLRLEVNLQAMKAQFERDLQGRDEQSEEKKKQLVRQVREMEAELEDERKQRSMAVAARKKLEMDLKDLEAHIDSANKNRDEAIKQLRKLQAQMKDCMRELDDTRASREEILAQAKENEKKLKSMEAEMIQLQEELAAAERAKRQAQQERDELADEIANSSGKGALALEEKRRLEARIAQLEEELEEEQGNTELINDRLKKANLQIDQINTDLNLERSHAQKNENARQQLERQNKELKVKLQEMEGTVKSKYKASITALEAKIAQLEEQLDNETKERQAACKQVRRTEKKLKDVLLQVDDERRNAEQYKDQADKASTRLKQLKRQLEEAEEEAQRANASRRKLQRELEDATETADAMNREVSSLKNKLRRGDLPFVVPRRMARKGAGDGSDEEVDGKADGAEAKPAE

Results are given in words; binding and its absence hold for the method and conditions named. In cells and extracts the contact can be indirect. Some binding calls cover weakened binding; strength is not graded here.

The results in this text go back to paper PMC11493973.

MYH9 (from UniProt P35579 1-1960): the binding result was “binds”.
